# Laboratory results reported in paper doi:10.1101/178004.
# Chains of the proteins cited; added tags and fusions are not shown.
# UniProt P35222: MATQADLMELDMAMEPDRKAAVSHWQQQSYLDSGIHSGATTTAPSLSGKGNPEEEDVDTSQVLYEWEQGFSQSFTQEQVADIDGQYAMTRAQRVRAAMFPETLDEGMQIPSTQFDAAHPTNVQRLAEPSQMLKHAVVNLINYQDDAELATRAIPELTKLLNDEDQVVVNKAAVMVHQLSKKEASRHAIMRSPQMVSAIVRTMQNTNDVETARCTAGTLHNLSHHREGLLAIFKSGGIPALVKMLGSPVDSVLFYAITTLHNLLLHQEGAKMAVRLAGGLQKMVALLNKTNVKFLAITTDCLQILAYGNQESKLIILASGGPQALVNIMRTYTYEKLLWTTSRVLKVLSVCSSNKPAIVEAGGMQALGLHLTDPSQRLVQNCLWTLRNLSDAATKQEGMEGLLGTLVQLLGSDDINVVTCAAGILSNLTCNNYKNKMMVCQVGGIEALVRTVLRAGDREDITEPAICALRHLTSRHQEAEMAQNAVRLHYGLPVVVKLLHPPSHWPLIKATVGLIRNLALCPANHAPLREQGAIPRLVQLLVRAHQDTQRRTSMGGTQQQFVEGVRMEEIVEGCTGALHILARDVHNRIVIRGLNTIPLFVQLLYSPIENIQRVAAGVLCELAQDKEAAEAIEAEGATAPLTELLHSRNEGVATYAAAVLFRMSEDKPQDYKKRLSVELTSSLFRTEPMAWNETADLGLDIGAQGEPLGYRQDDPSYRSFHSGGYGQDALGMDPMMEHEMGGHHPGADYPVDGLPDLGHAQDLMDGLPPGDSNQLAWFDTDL
# These are yes or no findings as the source states them, for the method shown. Binding seen in cells or lysates may run through a third protein. Some binding calls cover weakened binding; strength is not graded here.
# Target: T1, B-Cell Chronic Lymphocytic Leukaemia/Lymphoma 3 (BCL-3) protein (human (endogenous in SW1463)) (UniProt P20749)
# T1 sequence: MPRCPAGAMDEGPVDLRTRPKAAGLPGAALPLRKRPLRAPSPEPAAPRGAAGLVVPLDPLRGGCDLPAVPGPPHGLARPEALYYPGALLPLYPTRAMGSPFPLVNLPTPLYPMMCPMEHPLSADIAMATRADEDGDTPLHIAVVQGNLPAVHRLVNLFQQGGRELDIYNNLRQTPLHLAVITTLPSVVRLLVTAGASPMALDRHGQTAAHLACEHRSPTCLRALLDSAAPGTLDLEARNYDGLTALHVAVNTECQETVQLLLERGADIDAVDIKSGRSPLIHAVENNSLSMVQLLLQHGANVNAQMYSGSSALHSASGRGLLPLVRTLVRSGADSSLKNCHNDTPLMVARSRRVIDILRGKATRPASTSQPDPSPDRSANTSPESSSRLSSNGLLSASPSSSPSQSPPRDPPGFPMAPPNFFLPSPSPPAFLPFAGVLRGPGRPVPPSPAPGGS
# Assay: co-IP
substance,measurement,value
β-catenin (from UniProt P35222 1-781),binding,binds
